Consider six molecules from paper PMC5958137, “Calreticulin and integrin alpha dissociation induces anti-inflammatory programming in animal models of inflammatory bowel disease” (Nature Communications, 2018).

Amino acid sequences for entries named in this document (tags omitted). Residues count along the entry.
UniProt P14211, residues 18-416: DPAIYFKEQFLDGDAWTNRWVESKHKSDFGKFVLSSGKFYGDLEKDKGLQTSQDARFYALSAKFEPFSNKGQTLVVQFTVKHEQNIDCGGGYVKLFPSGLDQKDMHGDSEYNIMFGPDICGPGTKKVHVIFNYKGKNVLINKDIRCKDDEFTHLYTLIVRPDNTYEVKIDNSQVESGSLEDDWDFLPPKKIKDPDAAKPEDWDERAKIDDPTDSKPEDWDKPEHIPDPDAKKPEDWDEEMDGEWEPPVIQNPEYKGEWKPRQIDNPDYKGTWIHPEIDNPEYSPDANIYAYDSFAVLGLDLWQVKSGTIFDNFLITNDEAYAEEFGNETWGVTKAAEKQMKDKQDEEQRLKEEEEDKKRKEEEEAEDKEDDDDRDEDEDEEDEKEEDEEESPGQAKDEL

Experiment [1] deals with T1, integrin α 4 (ITGA4), endogenous human (human (endogenous in Jurkat cells and in UC patient colon)) (UniProt P13612).
T1 sequence: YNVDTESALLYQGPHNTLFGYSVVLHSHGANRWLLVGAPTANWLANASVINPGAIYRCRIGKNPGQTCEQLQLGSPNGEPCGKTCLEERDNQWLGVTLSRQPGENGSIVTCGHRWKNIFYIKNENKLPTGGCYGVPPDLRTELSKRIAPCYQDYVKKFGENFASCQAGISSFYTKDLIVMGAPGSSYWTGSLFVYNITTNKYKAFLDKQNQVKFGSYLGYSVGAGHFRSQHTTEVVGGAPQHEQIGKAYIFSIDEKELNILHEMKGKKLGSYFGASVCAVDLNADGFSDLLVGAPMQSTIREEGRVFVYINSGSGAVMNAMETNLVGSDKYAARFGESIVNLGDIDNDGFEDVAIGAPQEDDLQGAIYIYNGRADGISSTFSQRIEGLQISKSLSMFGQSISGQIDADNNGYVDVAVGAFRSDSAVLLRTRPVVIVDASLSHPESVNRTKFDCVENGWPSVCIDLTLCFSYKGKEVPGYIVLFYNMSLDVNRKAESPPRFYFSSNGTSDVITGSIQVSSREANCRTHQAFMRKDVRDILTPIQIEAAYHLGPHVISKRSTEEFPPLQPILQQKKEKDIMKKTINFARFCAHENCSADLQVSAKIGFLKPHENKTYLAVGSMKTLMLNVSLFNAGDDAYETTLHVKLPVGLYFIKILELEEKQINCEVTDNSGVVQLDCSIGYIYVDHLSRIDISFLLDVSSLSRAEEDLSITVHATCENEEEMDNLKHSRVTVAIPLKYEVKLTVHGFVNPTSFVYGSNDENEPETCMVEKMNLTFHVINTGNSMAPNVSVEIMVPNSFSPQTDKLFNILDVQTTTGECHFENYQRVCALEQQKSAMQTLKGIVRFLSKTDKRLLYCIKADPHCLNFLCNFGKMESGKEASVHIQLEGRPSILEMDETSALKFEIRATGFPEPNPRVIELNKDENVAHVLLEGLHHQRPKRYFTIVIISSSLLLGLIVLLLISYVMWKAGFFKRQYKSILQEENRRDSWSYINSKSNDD
The experiment in a line: proximity ligation; in situ PLA (Duolink Brightfield) on a formalin-fixed colon section of a UC patient, anti-CRT FMC75 and anti-ITGA4 EPR1355Y; inflamed and non-inflamed sites.

The target of experiment [2] is T1, integrin α 4 (ITGA4), endogenous human (human (endogenous in Jurkat cells and in UC patient colon)). The experiment in a line: proximity ligation; in situ PLA (Duolink Red) on methanol-fixed Jurkat cells stimulated with PMA (100 ng/mL, 30 min), anti-CRT FMC75 and anti-ITGA4 EPR1355Y; also with 5 μM ER-464195-01 or ER-435813-01.
For experiment [3], the target named is T2, integrin α 4 (ITGA4), endogenous mouse (mouse (endogenous in colon)) (UniProt Q00651).
T2 sequence: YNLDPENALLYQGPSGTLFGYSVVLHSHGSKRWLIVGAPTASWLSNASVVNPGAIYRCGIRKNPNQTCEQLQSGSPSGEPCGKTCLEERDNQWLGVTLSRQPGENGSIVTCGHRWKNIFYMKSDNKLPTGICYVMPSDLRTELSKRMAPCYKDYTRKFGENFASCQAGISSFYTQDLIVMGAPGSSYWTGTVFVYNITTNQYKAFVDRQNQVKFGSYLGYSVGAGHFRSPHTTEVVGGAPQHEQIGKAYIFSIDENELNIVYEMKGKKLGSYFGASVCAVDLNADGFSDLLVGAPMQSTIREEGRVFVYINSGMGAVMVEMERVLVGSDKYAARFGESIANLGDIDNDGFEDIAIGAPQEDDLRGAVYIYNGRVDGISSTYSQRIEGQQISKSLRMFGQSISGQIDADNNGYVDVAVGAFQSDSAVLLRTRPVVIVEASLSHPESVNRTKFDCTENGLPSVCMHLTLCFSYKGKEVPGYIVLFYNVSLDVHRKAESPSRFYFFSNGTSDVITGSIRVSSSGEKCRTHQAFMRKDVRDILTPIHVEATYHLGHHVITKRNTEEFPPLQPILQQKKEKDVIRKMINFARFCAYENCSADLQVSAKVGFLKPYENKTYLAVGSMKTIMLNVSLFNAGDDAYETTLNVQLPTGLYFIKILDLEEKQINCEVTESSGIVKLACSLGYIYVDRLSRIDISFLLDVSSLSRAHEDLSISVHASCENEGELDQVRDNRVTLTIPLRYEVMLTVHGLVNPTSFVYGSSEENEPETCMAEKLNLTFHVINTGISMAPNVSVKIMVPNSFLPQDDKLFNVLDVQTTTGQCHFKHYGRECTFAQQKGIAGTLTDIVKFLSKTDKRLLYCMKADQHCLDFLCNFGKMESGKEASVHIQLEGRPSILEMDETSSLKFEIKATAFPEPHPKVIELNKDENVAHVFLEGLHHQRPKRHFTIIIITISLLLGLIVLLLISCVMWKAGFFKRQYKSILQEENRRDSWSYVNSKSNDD
Briefly: proximity ligation; in situ PLA on colon sections of DSS-treated mice, anti-CRT N-19 and anti-ITGA4 19676-1-AP.

In experiment [4] the target is T2, integrin α 4 (ITGA4), endogenous mouse (mouse (endogenous in colon)). The experiment in a line: condition: only in mice treated with ER-464195-01 after DSS; proximity ligation; in situ PLA on colon sections of DSS-treated mice after therapeutic treatment with ER-464195-01, anti-CRT N-19 and anti-ITGA4 19676-1-AP.
The target of experiment [5] is T3, uniformly 15N-labeled intracellular domain of ITGA4.
T3 sequence (chain, uniformly 15N-labeled): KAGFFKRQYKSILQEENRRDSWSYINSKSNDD
Briefly: NMR titration; two-dimensional 15N-HSQC, 4 μM 15N-ITGA4 with 4 μM CRT and 800 μM ER-339093-13, 20 mM PB pH 5.5, 10% D2O, 303 K, 700 MHz; both purified.

In experiment [6] the target is Human CRT expressed as a maltose binding protein fusion protein (human) (UniProt P27797). Briefly: ELISA; HTS cell-free binding assay: CRT coated on a 96-well plate, biotinylated α integrin peptide added in 10 mM phosphate buffer pH 7.4 with compound or vehicle, 1 h at room temperature, HRP-streptavidin, absorbance at 450 nm; both purified.

Results are given in words; binding and its absence hold for the method and conditions named. For some assays here: In cells and extracts the contact can be indirect. Some binding calls cover weakened binding; strength is not graded here.

Regarding “Calreticulin (CRT), endogenous human (from UniProt P27797 18-417)”, the binding result in experiment [1] and in experiment [2] was “binds” in each case.

With “Calreticulin (CRT), endogenous mouse (from UniProt P14211 18-416)”, the binding result in experiment [3] is given as “binds”; in experiment [4] it was “no binding”.

“Human CRT protein, His-tag fusion protein (pET-19b) (from UniProt P27797 18-417)”: the binding result in experiment [5] was “no binding (condition: with 800 μM ER-339093-13)”.

B1: N-terminally biotinylated ITGA peptide KLGFFKR (αM/α2/α5) (peptide)
peptide: KLGFFKR
modifications: biotin on the N-terminus
B1: the binding entry in experiment [6] is reported as “binds”.

B2: N-terminally biotinylated ITGA peptide KAGFFKR (α4) (peptide)
peptide: KAGFFKR
modifications: biotin on the N-terminus
Turning to B2, in experiment [6], the binding result is given as “binds”.

B3: N-terminally biotinylated ITGA peptide KVGFFKR (αL) (peptide)
peptide: KVGFFKR
modifications: biotin on the N-terminus
B3: the binding entry in experiment [6] is recorded as “binds”.
